According to PubChem BioAssay AID485349 (National Center for Advancing Translational Sciences (NCATS), 2010):
Hit rate of the full screen: of about 320,000 compounds, about 620 (0.19%) were called active. The inconclusive results got no clear call from the source; some entries with a clear call stand among them for comparison. The call rests on the fitted dose curve; in most records, active means well fitted activation curve with a large enough effect; inconclusive means small, poorly fitted or top-dose-only effect; inactive means no such curve, though single readings can be large or run the other way. Where the call is inconclusive, the potency comes from a doubtful curve fit.

Experiment: qHTS Assay for Identifying a Potential Treatment of Ataxia-Telangiectasia; further: nearly all actives have a fitted effect of over 45% in size; on activation: % of control where 0% means no effect
Conditions: […] A-T fibroblasts, KAP-1 phosphorylation AlphaLISA, neocarzinostatin DNA damage 30 min before lysis; series mostly up to 57.5 µM; activation: at the top concentration
Method in brief: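 hTERT-immortalized A-T patient fibroblasts ([…]), 500 cells/well in OPTI-MEM, 1% FBS, got compounds for 60 min, then NCS for 30 min at 37C. Lysates were then assayed for phospho-KAP-1 by AlphaLISA (anti-pKAP1 donor, anti-KAP1 acceptor beads), 6 hr at 25C.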
Potency means the concentration at half of the fitted maximal effect.

| SMILES | Potency | activation |
| --- | --- | --- |
| CC[C@@]1(c2ccccc2OC)ON(c2ccccc2C(F)(F)F)C1=O | inconclusive: 39.8 µM [activator, single point] | – |
| C/C=C/C(=O)N1CC2(CC(c3cccc(NC(=O)CC)c3)=NO2)C[C@H]1C(N)=O (stereo partly drawn) | inconclusive: 39.8 µM [activator, single point] | – |
| CN(C)c1nc(-c2ccccc2)c2cnn(Cc3ccccc3)c2n1 | inconclusive: 39.8 µM [activator, single point] | – |
| CN(C(=O)CCN1C(=O)S/C(=C\c2ccccc2)C1=O)C1CCS(=O)(=O)C1 (stereo not drawn) | inconclusive: 3.55 µM [activator, single point] | – |
| Cc1cc(-n2c(SCC(=O)Nc3ccc(F)c(F)c3)nc3n[nH]c(C)c3c2=N)ccc1Cl | inconclusive: 35.5 µM [activator, single point] | – |
| CCn1c(SCc2cccc(F)c2)nnc1-c1ccncc1 | active: 4.47 µM | – |
| Cc1cccc2cc(COC(=O)COc3ccccc3)c(=O)[nH]c12 | active: 22.4 µM | – |
| CCN(CC)CCOC(=O)c1ccc([N+](=O)[O-])cc1 | active: 35.5 µM | – |
| CCN(CC)S(=O)(=O)c1ccc(Cl)c(NC(=O)CCCCl)c1 | inconclusive: 0.708 µM [activator, full curve, poor fit] | – |
| CCOC(=O)c1c(-c2cccs2)csc1NC(=O)CN(CC)CC | – | inactive: 15.3% |
| Cc1cc(SCC(=O)NCCC2=CCCCC2)nc2ccccc12 | inconclusive: 39.8 µM [activator, partial curve] | – |
| O=C1OC2(c3ccccc31)c1cc(I)c(O)c(I)c1Oc1c2cc(I)c(O)c1I | – | inactive: -11.3% |
| COc1ccc(-c2c(-c3cc(OC)cc(OC)c3)n(C)c3ccc(-c4ccc5cc[nH]c5c4)cc23)cc1 | inconclusive: 31.6 µM [activator, partial curve] | – |
| CC(Sc1nnc(NC2CC2)s1)C(=O)Nc1ccc(S(N)(=O)=O)cc1 (stereo not drawn) | inconclusive: 4.47 µM [activator, single point] | – |
| CCCCOC(=O)CSc1nc2ccccc2o1 | inconclusive: 35.5 µM [activator, partial curve, poor fit] | – |
| Cc1cc(O)c(C(=O)/C=C/c2cccc([N+](=O)[O-])c2)c(=O)o1 | – | inactive: 3.51% |
| CC1C/C(=C\c2cccnc2)C(=O)/C(=C/c2cccnc2)C1 (stereo not drawn) | inconclusive: 22.4 µM [activator, partial curve] | – |
| Cc1sc2nc(-c3ccccn3)[nH]c(=O)c2c1-c1ccccc1 | inconclusive: 10 µM [activator, full curve, poor fit] | – |
| O=C(Nc1ccc(Cl)cc1)C(Cl)C(=O)c1ccccc1 (stereo not drawn) | inconclusive: 25.1 µM [activator, single point] | – |
| Cc1sc2nc3c4ccccc4c(NCc4ccco4)nn3c(=O)c2c1C | – | inactive: 3% |
| O=C(NCCc1cccc(Cl)c1)c1ccc2c(c1)OCO2 | – | inactive: 1.59% |
| COc1ccc(C2(C)CC(C)(C)Nc3ccccc32)cc1 (stereo not drawn) | inconclusive: 39.8 µM [activator, single point] | – |
| COc1ccccc1[C@@H]1C(c2cccc(Cl)c2)=NN(c2ccccc2)[C@H]1C(=O)N1CCOC1=O | inconclusive: 35.5 µM [activator, partial curve] | – |
| CC(C)C1N=C(c2ccc3c(c2)OCO3)CC(c2ccccc2O)N1 (stereo not drawn) | – | inactive: 33.8% |

Molecules from the list above that contain sulfur:

| SMILES | Potency | activation |
| --- | --- | --- |
| CN(C(=O)CCN1C(=O)S/C(=C\c2ccccc2)C1=O)C1CCS(=O)(=O)C1 (stereo not drawn) | inconclusive: 3.55 µM [activator, single point] | – |
| Cc1cc(-n2c(SCC(=O)Nc3ccc(F)c(F)c3)nc3n[nH]c(C)c3c2=N)ccc1Cl | inconclusive: 35.5 µM [activator, single point] | – |
| CCn1c(SCc2cccc(F)c2)nnc1-c1ccncc1 | active: 4.47 µM | – |
| CCN(CC)S(=O)(=O)c1ccc(Cl)c(NC(=O)CCCCl)c1 | inconclusive: 0.708 µM [activator, full curve, poor fit] | – |
| CCOC(=O)c1c(-c2cccs2)csc1NC(=O)CN(CC)CC | – | inactive: 15.3% |
| Cc1cc(SCC(=O)NCCC2=CCCCC2)nc2ccccc12 | inconclusive: 39.8 µM [activator, partial curve] | – |
| CC(Sc1nnc(NC2CC2)s1)C(=O)Nc1ccc(S(N)(=O)=O)cc1 (stereo not drawn) | inconclusive: 4.47 µM [activator, single point] | – |
| CCCCOC(=O)CSc1nc2ccccc2o1 | inconclusive: 35.5 µM [activator, partial curve, poor fit] | – |
| Cc1sc2nc(-c3ccccn3)[nH]c(=O)c2c1-c1ccccc1 | inconclusive: 10 µM [activator, full curve, poor fit] | – |
| Cc1sc2nc3c4ccccc4c(NCc4ccco4)nn3c(=O)c2c1C | – | inactive: 3% |

Continuation.

| SMILES | Potency | activation |
| --- | --- | --- |
| O=C(Nc1cc(S(=O)(=O)N2CCOCC2)ccc1Cl)c1ccc(=O)[nH]c1 | – | inactive: -0.0408% |
| CCCCC(=O)Nc1c(-c2ccc(OC)c(OC)c2)c(=O)c2ccccc2n1C | inconclusive: 0.708 µM [activator, full curve, poor fit] | – |
| CCOC(=O)c1cnc2ccc(C)cc2c1N(C)Cc1ccccc1 | active: 22.4 µM | – |
| CCCOc1ccc(CCC(=O)N/N=C/c2ccncc2)cc1 | inconclusive: 39.8 µM [activator, partial curve, poor fit] | – |
| CC1Cc2ccccc2N1C(=S)NC(=O)c1ccco1 (stereo not drawn) | – | inactive: 16% |
| COc1ccc(C(=O)NC(=S)NNC(=O)c2ccc3ccccc3n2)cc1 | inconclusive: 3.55 µM [activator, single point] | – |
| OC(C#Cc1ccccn1)c1cccs1 (stereo not drawn) | active: 14.1 µM | – |
| CSc1nc2ncc3c(n2n1)CC1c2ccccc2CCN1C3=O (stereo not drawn) | – | inactive: -6.31% |
| CCOC(=O)c1sc2nc(C(C)C)c3c(c2c1N)CCC3 | inconclusive: 15.8 µM [activator, partial curve] | – |
| COc1ccccc1Nc1nc(N)nc(CN2CCOCC2)n1 | – | inactive: 10.4% |
| O=C(Nc1cnn(C23CC4CC(CC(C4)C2)C3)c1)c1cnn2cccnc12 | inconclusive: 3.55 µM [activator, partial curve] | – |
| COC(=O)c1ccc(C(=O)OC)c(N)c1 | inconclusive: 22.4 µM [activator, partial curve] | – |
| O=C(COC(=O)/C=C/c1ccc2c(c1)OCO2)NC1CCS(=O)(=O)C1 (stereo not drawn) | active: 3.16 µM | – |
| O=C(NCCCCCCNC(=O)c1cncc(O)c1)c1cncc(O)c1 | inconclusive: 1.12 µM [activator, partial curve] | – |
| O=S(=O)(c1ccccc1)c1nc(Nc2cccc(O)c2)sc1Cl | – | inactive: 4.77% |
| CSC(=NC#N)N1CCN(c2ccc([N+](=O)[O-])cc2)CC1 | – | inactive: 5.71% |
| CCN1C/C(=C\c2cccc([N+](=O)[O-])c2)C(=O)/C(=C/c2cccc([N+](=O)[O-])c2)C1 | active: 22.4 µM | – |
| Cc1ccc(C(=O)N2CCCCC2)cc1S(=O)(=O)N1CCCC1 | inconclusive: 3.16 µM [activator, single point] | – |
| CN(C)/C=C/c1oc2ccc(O)cc2c1[N+](=O)[O-] | – | inactive: -4.12% |
| N#Cc1sc(NCc2ccccc2)nc1Cl | – | inactive: 0.242% |
| CCOC(=O)c1oc2cccc(OCC(O)CNC(C)C)c2c1C (stereo not drawn) | inconclusive: 35.5 µM [activator, partial curve] | – |
| CCOc1cc(C2NN=C(c3ccc(C)cc3)S2)ccc1O (stereo not drawn) | inconclusive: 39.8 µM [activator, partial curve] | – |
| O=c1[nH]c2ccsc2c(=O)n1-c1ccc(F)c(Cl)c1 | – | inactive: -1.56% |
| CCOC(=O)C1CCN(Cc2cc(Cl)c3ccccc3c2O)CC1 | inconclusive: 39.8 µM [activator, single point] | – |
